Experimental data taken from publication PMC9544323, “Abscisic acid regulates stomatal production by imprinting a SnRK2 kinase–mediated phosphocode on the master regulator [sequence]” (Science Advances, 2022).
These are yes or no findings as the source states them, for the method shown. Binding seen in cells or lysates may run through a third protein. Some entries that bind do so weakly or less than the wild type. Where a sequence is shown, tags or fusion partners need not be part of it.

T1: cYFP-SPCH (Arabidopsis thaliana) (UniProt Q700C7)
T1 sequence: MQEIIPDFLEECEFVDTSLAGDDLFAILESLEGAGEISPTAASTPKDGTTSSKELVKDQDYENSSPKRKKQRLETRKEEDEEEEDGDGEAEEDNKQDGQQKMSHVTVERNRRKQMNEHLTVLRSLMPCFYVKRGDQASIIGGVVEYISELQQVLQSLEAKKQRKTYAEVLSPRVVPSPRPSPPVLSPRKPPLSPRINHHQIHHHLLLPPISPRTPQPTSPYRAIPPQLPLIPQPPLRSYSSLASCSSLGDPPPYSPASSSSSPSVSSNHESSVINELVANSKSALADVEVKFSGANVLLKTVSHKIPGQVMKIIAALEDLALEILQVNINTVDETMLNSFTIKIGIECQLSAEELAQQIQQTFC

T2: SnRK2.2-YFP (SnRK2.2pro:SnRK2.2-YFP) (Arabidopsis thaliana) (UniProt Q39192)
T2 sequence: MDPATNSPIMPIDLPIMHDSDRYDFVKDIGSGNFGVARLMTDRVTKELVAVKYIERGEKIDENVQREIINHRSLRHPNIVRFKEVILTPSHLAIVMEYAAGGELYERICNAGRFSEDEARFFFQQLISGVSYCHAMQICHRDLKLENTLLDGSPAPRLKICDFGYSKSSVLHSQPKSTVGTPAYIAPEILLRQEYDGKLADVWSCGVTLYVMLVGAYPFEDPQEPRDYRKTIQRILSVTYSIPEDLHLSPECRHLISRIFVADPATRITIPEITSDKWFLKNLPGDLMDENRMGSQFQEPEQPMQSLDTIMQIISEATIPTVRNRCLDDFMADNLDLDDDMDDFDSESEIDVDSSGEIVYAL

T3: SnRK2.3-YFP (SnRK2.3pro:SnRK2.3-YFP) (Arabidopsis thaliana) (UniProt Q39193)
T3 sequence: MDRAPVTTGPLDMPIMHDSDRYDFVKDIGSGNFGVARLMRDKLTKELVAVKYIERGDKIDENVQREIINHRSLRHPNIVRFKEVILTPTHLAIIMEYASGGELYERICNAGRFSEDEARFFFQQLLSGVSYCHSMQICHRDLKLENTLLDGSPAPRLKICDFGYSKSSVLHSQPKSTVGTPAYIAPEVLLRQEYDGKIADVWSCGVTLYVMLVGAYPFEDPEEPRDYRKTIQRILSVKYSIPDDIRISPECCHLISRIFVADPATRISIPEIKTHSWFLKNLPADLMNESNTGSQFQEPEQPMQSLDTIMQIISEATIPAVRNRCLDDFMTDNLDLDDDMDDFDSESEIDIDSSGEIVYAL


Experiments:
[1] = target: T1, cYFP-SPCH (Arabidopsis thaliana); experiment: split reporter; BiFC: nYFP-SnRK2s and cYFP-SPCH coexpressed transiently (35S promoter) in N. benthamiana leaves; YFP signal seen 48 to 72 hours after infiltration by wide-field fluorescence microscopy
[2] = target: T2, SnRK2.2-YFP (SnRK2.2pro:SnRK2.2-YFP) (Arabidopsis thaliana); experiment: co-IP; total soluble proteins of 3-day-old transgenic Arabidopsis seedlings with SnRK2.2-YFP or SnRK2.3-YFP and SPCH2-4A-Myc; immunoprecipitation with anti-GFP beads (GFP-Trap); blots with anti-Myc and anti-GFP; buffer 50 mM tris-HCl pH 7.5, 150 mM NaCl, 1 mM EDTA, 5% glycerol, 0.5% Triton X-100, 25 uM MG132
[3] = target: T3, SnRK2.3-YFP (SnRK2.3pro:SnRK2.3-YFP) (Arabidopsis thaliana); experiment: as above

Binder | binding [1] | binding [2] | binding [3]
MBP-SnRK2.2 (maltose-binding protein-tagged SnRK2.2) (enzyme, Arabidopsis thaliana, UniProt Q39192 1-362, looked up, SnRK2.2/SRK2D, subclass III SNF1-related protein kinase 2, Arabidopsis thaliana; cDNA cloned into pETG-40A; also called SRK2D; source: E. coli ArcticExpress (DE3), purified (MBP amylose resin)) MDPATNSPIMPIDLPIMHDSDRYDFVKDIGSGNFGVARLMTDRVTKELVAVKYIERGEKIDENVQREIINHRSLRHPNIVRFKEVILTPSHLAIVMEYAAGGELYERICNAGRFSEDEARFFFQQLISGVSYCHAMQICHRDLKLENTLLDGSPAPRLKICDFGYSKSSVLHSQPKSTVGTPAYIAPEILLRQEYDGKLADVWSCGVTLYVMLVGAYPFEDPQEPRDYRKTIQRILSVTYSIPEDLHLSPECRHLISRIFVADPATRITIPEITSDKWFLKNLPGDLMDENRMGSQFQEPEQPMQSLDTIMQIISEATIPTVRNRCLDDFMADNLDLDDDMDDFDSESEIDVDSSGEIVYAL | binds | – | –
MBP-SnRK2.3 (maltose-binding protein-tagged SnRK2.3) (enzyme, Arabidopsis thaliana, UniProt Q39193 1-361, looked up, SnRK2.3/SRK2I, subclass III SNF1-related protein kinase 2, Arabidopsis thaliana; cDNA cloned into pETG-40A; also called SRK2I; source: E. coli ArcticExpress (DE3), purified (MBP amylose resin)) MDRAPVTTGPLDMPIMHDSDRYDFVKDIGSGNFGVARLMRDKLTKELVAVKYIERGDKIDENVQREIINHRSLRHPNIVRFKEVILTPTHLAIIMEYASGGELYERICNAGRFSEDEARFFFQQLLSGVSYCHSMQICHRDLKLENTLLDGSPAPRLKICDFGYSKSSVLHSQPKSTVGTPAYIAPEVLLRQEYDGKIADVWSCGVTLYVMLVGAYPFEDPEEPRDYRKTIQRILSVKYSIPDDIRISPECCHLISRIFVADPATRISIPEIKTHSWFLKNLPADLMNESNTGSQFQEPEQPMQSLDTIMQIISEATIPAVRNRCLDDFMTDNLDLDDDMDDFDSESEIDIDSSGEIVYAL | binds | – | –
SPCH2-4A-Myc (SPCHpro:SPCH2-4A-Myc) (protein, UniProt Q700C7 1-364) MQEIIPDFLEECEFVDTSLAGDDLFAILESLEGAGEISPTAASTPKDGTTSSKELVKDQDYENSSPKRKKQRLETRKEEDEEEEDGDGEAEEDNKQDGQQKMSHVTVERNRRKQMNEHLTVLRSLMPCFYVKRGDQASIIGGVVEYISELQQVLQSLEAKKQRKTYAEVLSPRVVPSPRPSPPVLSPRKPPLSPRINHHQIHHHLLLPPIAPRAPQPTAPYRAIPPQLPLIPQPPLRSYSSLASCSSLGDPPPYSPASSSSSPSVSSNHESSVINELVANSKSALADVEVKFSGANVLLKTVSHKIPGQVMKIIAALEDLALEILQVNINTVDETMLNSFTIKIGIECQLSAEELAQQIQQTFC | – | binds | binds
